Results: PMC3514159
Results are given in words; binding and its absence hold for the method and conditions named. For some assays here: Binding seen in cells or lysates may run through a third protein. Some entries that bind do so weakly or less than the wild type. Tags and fused reporters may be left off the sequences shown. Blank lines part the entries; values can stand above or below the binder they belong to.

The chains behind the UniProt entries cited, without tags or fusion partners.
UniProt P09022: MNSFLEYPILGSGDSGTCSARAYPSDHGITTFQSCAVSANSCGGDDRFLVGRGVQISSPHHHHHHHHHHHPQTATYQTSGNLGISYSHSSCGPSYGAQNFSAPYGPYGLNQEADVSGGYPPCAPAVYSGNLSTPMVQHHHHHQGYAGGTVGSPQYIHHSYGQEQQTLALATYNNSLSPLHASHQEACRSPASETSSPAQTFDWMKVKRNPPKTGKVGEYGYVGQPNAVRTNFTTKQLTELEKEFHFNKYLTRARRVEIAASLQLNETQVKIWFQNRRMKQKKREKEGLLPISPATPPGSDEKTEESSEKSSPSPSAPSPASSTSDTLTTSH

Assays:
[1] = biological target: VC155-Hoxa1 (mouse) (UniProt P09022); assay: split reporter; BiFC in transfected MCF10A cells: VN173-hORF with VC155-Hoxa1; fixed 24 h after transfection, confocal microscopy
[2] = biological target: Hoxa1 (mouse) (UniProt P09022); assay: two-hybrid; DB-Hoxa1 (Gal4 DNA binding domain) in MATα Y8930 mated with the AD-hORF library (human ORFeome v3.1) in MATa Y8800; 30°C; selection on Sc-L-T-H + 1 mM 3AT, retest on Sc-L-T-H, Sc-L-T-A and Sc-L-T-H-A+3AT

B1: PR domain containing 14 (protein, UniProt Q9GZV8 1-571)
chain: MALPRPSEAVPQDKVCYPPESSPQNLAAYYTPFPSYGHYRNSLATVEEDFQPFRQLEAAASAAPAMPPFPFRMAPPLLSPGLGLQREPLYDLPWYSKLPPWYPIPHVPREVPPFLSSSHEYAGASSEDLGHQIIGGDNESGPCCGPDTLIPPPPADASLLPEGLRTSQLLPCSPSKQSEDGPKPSNQEGKSPARFQFTEEDLHFVLYGVTPSLEHPASLHHAISGLLVPPDSSGSDSLPQTLDKDSLQLPEGLCLMQTVFGEVPHFGVFCSSFIAKGVRFGPFQGKVVNASEVKTYGDNSVMWEIFEDGHLSHFIDGKGGTGNWMSYVNCARFPKEQNLVAVQCQGHIFYESCKEIHQNQELLVWYGDCYEKFLDIPVSLQVTEPGKQPSGPSEESAEGYRCERCGKVFTYKYYRDKHLKYTPCVDKGDRKFPCSLCKRSFEKRDRLRIHILHVHEKHRPHKCSTCGKCFSQSSSLNKHMRVHSGDRPYQCVYCTKRFTASSILRTHIRQHSGEKPFKCKYCGKSFASHAAHDSHVRRSHKEDDGCSCSICGKIFSDQETFYSHMKFHEDY
binding [1]: binds
binding [2]: binds

B2: regulator of G-protein signaling 20 (protein, UniProt O76081 1-388)
chain: MPQLSQDNQECLQKHFSRPSIWTQFLPLFRAQRYNTDIHQITENEGDLRAVPDIKSFPPAQLPDSPAAPKLFGLLSSPLSSLARFFSHLLRRPPPEAPRRRLDFSPLLPALPAARLSRGHEELPGRLSLLLGAALALPGRPSGGRPLRPPHPVAKPREEDATAGQSSPMPQMGSERMEMRKRQMPAAQDTPGAAPGQPGAGSRGSNACCFCWCCCCSCSCLTVRNQEDQRPTIASHELRADLPTWEESPAPTLEEVNAWAQSFDKLMVTPAGRNAFREFLRTEFSEENMLFWMACEELKKEANKNIIEEKARIIYEDYISILSPKEVSLDSRVREVINRNMVEPSQHIFDDAQLQIYTLMHRDSYPRFMNSAVYKDLLQSLSEKSIEA
binding [1]: binds
binding [2]: binds

B4: NEDD4 binding protein 2-like 2 (protein, UniProt Q92802 1-583)
chain: MSYGEIEGKFLGPREEVTSEPRCKKLKSTTESYVFHNHSNADFHRIQEKTGNDWVPVTIIDVRGHSYLQENKIKTTDLHRPLHDEMPGNRPDVIESIDSQVLQEARPPLVSADDEIYSTSKAFIGPIYKPPEKKKRNEGRNEAHVLNGINDRGGQKEKQKFNSEKSEIDNELFQFYKEIEELEKEKDGFENSCKESEPSQEQFVPFYEGHNNGLLKPDEEKKDLSNKAMPSHCDYQQNLGNEPDKYPCNGQVIPTFCDTSFTSFRPEWQSVYPFIVPYGPPLPSLNYHLNIQRFSGPPNPPSNIFQAQDDSQIQNGYYVNNCHVNWNCMTFDQNNEYTDCSENRSSVHPSGNGCSMQDRYVSNGFCEVRERCWKDHCMDKHNGTDRFVNQQFQEEKLNKLQKLLILLRGLPGSGKTTLSRILLGQNRDGIVFSTDDYFHHQDGYRYNVNQLGDAHDWNQNRAKQAIDQGRSPVIIDNTNIQAWEMKPYVEVAIGKGYRVEFHEPETWWKFDPEELEKRNKHGVSRKKIAQMLDRYEYQMSISIVMNSVEPSHKSTQRPPPPQGRQRWGGSLGSHNRVCVTNNH
binding [1]: binds
binding [2]: binds

B5: TNF receptor-associated factor 1 (protein, UniProt Q13077 1-416)
chain: MASSSGSSPRPAPDENEFPFGCPPTVCQDPKEPRALCCAGCLSENPRNGEDQICPKCRGEDLQSISPGSRLRTQEKAHPEVAEAGIGCPFAGVGCSFKGSPQSVQEHEVTSQTSHLNLLLGFMKQWKARLGCGLESGPMALEQNLSDLQLQAAVEVAGDLEVDCYRAPCSESQEELALQHFMKEKLLAELEGKLRVFENIVAVLNKEVEASHLALATSIHQSQLDRERILSLEQRVVELQQTLAQKDQALGKLEQSLRLMEEASFDGTFLWKITNVTRRCHESACGRTVSLFSPAFYTAKYGYKLCLRLYLNGDGTGKRTHLSLFIVIMRGEYDALLPWPFRNKVTFMLLDQNNREHAIDAFRPDLSSASFQRPQSETNVASGCPLFFPLSKLQSPKHAYVKDDTMFLKCIVETST
binding [1]: binds
binding [2]: binds

B6: phospholipid scramblase 4 (protein, UniProt Q9NRQ2 1-329)
chain: MSGVVPTAPEQPAGEMENQTKPPDPRPDAPPEYNSHFLPGPPGTAVPPPTGYPGGLPMGYYSPQQPSTFPLYQPVGGIHPVRYQPGKYPMPNQSVPITWMPGPTPMANCPPGLEYLVQLDNIHVLQHFEPLEMMTCFETNNRYDIKNNSDQMVYIVTEDTDDFTRNAYRTLRPFVLRVTDCMGREIMTMQRPFRCTCCCFCCPSARQELEVQCPPGVTIGFVAEHWNLCRAVYSIQNEKKENVMRVRGPCSTYGCGSDSVFEVKSLDGISNIGSIIRKWNGLLSAMADADHFDIHFPLDLDVKMKAMIFGACFLIDFMYFERSPPQRSR
binding [1]: binds
binding [2]: binds

B9: O-linked N-acetylglucosamine (GlcNAc) transferase (protein, UniProt O15294 1-1046)
chain: MASSVGNVADSTEPTKRMLSFQGLAELAHREYQAGDFEAAERHCMQLWRQEPDNTGVLLLLSSIHFQCRRLDRSAHFSTLAIKQNPLLAEAYSNLGNVYKERGQLQEAIEHYRHALRLKPDFIDGYINLAAALVAAGDMEGAVQAYVSALQYNPDLYCVRSDLGNLLKALGRLEEAKACYLKAIETQPNFAVAWSNLGCVFNAQGEIWLAIHHFEKAVTLDPNFLDAYINLGNVLKEARIFDRAVAAYLRALSLSPNHAVVHGNLACVYYEQGLIDLAIDTYRRAIELQPHFPDAYCNLANALKEKGSVAEAEDCYNTALRLCPTHADSLNNLANIKREQGNIEEAVRLYRKALEVFPEFAAAHSNLASVLQQQGKLQEALMHYKEAIRISPTFADAYSNMGNTLKEMQDVQGALQCYTRAIQINPAFADAHSNLASIHKDSGNIPEAIASYRTALKLKPDFPDAYCNLAHCLQIVCDWTDYDERMKKLVSIVADQLEKNRLPSVHPHHSMLYPLSHGFRKAIAERHGNLCLDKINVLHKPPYEHPKDLKLSDGRLRVGYVSSDFGNHPTSHLMQSIPGMHNPDKFEVFCYALSPDDGTNFRVKVMAEANHFIDLSQIPCNGKAADRIHQDGIHILVNMNGYTKGARNELFALRPAPIQAMWLGYPGTSGALFMDYIITDQETSPAEVAEQYSEKLAYMPHTFFIGDHANMFPHLKKKAVIDFKSNGHIYDNRIVLNGIDLKAFLDSLPDVKIVKMKCPDGGDNADSSNTALNMPVIPMNTIAEAVIEMINRGQIQITINGFSISNGLATTQINNKAATGEEVPRTIIVTTRSQYGLPEDAIVYCNFNQLYKIDPSTLQMWANILKRVPNSVLWLLRFPAVGEPNIQQYAQNMGLPQNRIIFSPVAPKEEHVRRGQLADVCLDTPLCNGHTTGMDVLWAGTPMVTMPGETLASRVAASQLTCLGCLELIAKNRQEYEDIAVKLGTDLEYLKKVRGKVWKQRISSPLFNTKQYTMELERLYLQMWEHYAAGNKPDHMIKPVEVTESA
binding [1]: binds
binding [2]: binds

B10: phospholipid scramblase 1 (protein, UniProt O15162 1-318)
chain: MDKQNSQMNASHPETNLPVGYPPQYPPTAFQGPPGYSGYPGPQVSYPPPPAGHSGPGPAGFPVPNQPVYNQPVYNQPVGAAGVPWMPAPQPPLNCPPGLEYLSQIDQILIHQQIELLEVLTGFETNNKYEIKNSFGQRVYFAAEDTDCCTRNCCGPSRPFTLRIIDNMGQEVITLERPLRCSSCCCPCCLQEIEIQAPPGVPIGYVIQTWHPCLPKFTIQNEKREDVLKISGPCVVCSCCGDVDFEIKSLDEQCVVGKISKHWTGILREAFTDADNFGIQFPLDLDVKMKAVMIGACFLIDFMFFESTGSQEQKSGVW
binding [1]: binds
binding [2]: binds

The next lines start with the values.

binding [1]: binds
binding [2]: binds
B3: thyroid hormone receptor interactor 6 (protein, UniProt Q15654 1-476)
chain: MSGPTWLPPKQPEPARAPQGRAIPRGTPGPPPAHGAALQPHPRVNFCPLPSEQCYQAPGGPEDRGPAWVGSHGVLQHTQGLPADRGGLRPGSLDAEIDLLSSTLAELNGGRGHASRRPDRQAYEPPPPPAYRTGSLKPNPASPLPASPYGGPTPASYTTASTPAGPAFPVQVKVAQPVRGCGPPRRGASQASGPLPGPHFPLPGRGEVWGPGYRSQREPGPGAKEEAAGVSGPAGRGRGGEHGPQVPLSQPPEDELDRLTKKLVHDMNHPPSGEYFGQCGGCGEDVVGDGAGVVALDRVFHVGCFVCSTCRAQLRGQHFYAVERRAYCEGCYVATLEKCATCSQPILDRILRAMGKAYHPGCFTCVVCHRGLDGIPFTVDATSQIHCIEDFHRKFAPRCSVCGGAIMPEPGQEETVRIVALDRSFHIGCYKCEECGLLLSSEGECQGCYPLDGHILCKACSAWRIQELSATVTTDC

binding [1]: binds
binding [2]: binds
B7: zinc finger and BTB domain containing 16 (protein, UniProt Q05516 1-673)
chain: MDLTKMGMIQLQNPSHPTGLLCKANQMRLAGTLCDVVIMVDSQEFHAHRTVLACTSKMFEILFHRNSQHYTLDFLSPKTFQQILEYAYTATLQAKAEDLDDLLYAAEILEIEYLEEQCLKMLETIQASDDNDTEATMADGGAEEEEDRKARYLKNIFISKHSSEESGYASVAGQSLPGPMVDQSPSVSTSFGLSAMSPTKAAVDSLMTIGQSLLQGTLQPPAGPEEPTLAGGGRHPGVAEVKTEMMQVDEVPSQDSPGAAESSISGGMGDKVEERGKEGPGTPTRSSVITSARELHYGREESAEQVPPPAEAGQAPTGRPEHPAPPPEKHLGIYSVLPNHKADAVLSMPSSVTSGLHVQPALAVSMDFSTYGGLLPQGFIQRELFSKLGELAVGMKSESRTIGEQCSVCGVELPDNEAVEQHRKLHSGMKTYGCELCGKRFLDSLRLRMHLLAHSAGAKAFVCDQCGAQFSKEDALETHRQTHTGTDMAVFCLLCGKRFQAQSALQQHMEVHAGVRSYICSECNRTFPSHTALKRHLRSHTGDHPYECEFCGSCFRDESTLKSHKRIHTGEKPYECNGCGKKFSLKHQLETHYRVHTGEKPFECKLCHQRSRDYSAMIKHLRTHNGASPYQCTICTEYCPSLSSMQKHMKGHKPEEIPPDWRIEKTYLYLCYV

binding [1]: binds
binding [2]: binds
B8: sprouty homolog 1 (protein, UniProt O43609 1-319)
chain: MDPQNQHGSGSSLVVIQQPSLDSRQRLDYEREIQPTAILSLDQIKAIRGSNEYTEGPSVVKRPAPRTAPRQEKHERTHEIIPINVNNNYEHRHTSHLGHAVLPSNARGPILSRSTSTGSAASSGSNSSASSEQGLLGRSPPTRPVPGHRSERAIRTQPKQLIVDDLKGSLKEDLTQHKFICEQCGKCKCGECTAPRTLPSCLACNRQCLCSAESMVEYGTCMCLVKGIFYHCSNDDEGDSYSDNPCSCSQSHCCSRYLCMGAMSLFLPCLLCYPPAKGCLKLCRRCYDWIHRPGCRCKNSNTVYCKLESCPSRGQGKPS
